From US7186861B2 (priority 2002, dated 2007)
Some results were stated once for a whole list of compounds, not compound by compound.

Columns and labels:
Phytophthora infestans = format: in vivo; conditions: 250 ppm active compound; tomato Große Fleischtomate St. Pierre; infected the day after spraying, assessed after 6 days; untreated plants 100% infected
Plasmopara viticola = test: Activity against downy mildew of grapes caused by Plasmopara viticola (lasting effect, inoculation 7 days after spraying); format: in vivo; conditions: 250 ppm active compound; potted vines, experimental conditions as in the comparative example (lasting effect); untreated plants 90% infected
Procedure: The active compounds were prepared, separately or together, as a 10% emulsion in a mixture of 70% by weight of cyclohexanone, 20% by weight of Nekanil® LN (Lutensol® AP6, wetting agent with an emulsifying and dispersing action based on ethoxylated alkylphenols) and 10% by weight of Wettol® EM (nonionic emulsifier based on ethoxylated castor oil) and were appropriately diluted with water to the desired concentration.
Leaves of potted vines of the variety “Müller-Thurgau” were sprayed to runoff point with an aqueous preparation of active compound prepared from a stock solution consisting of 10% of active compound, 85% of cyclohexanone and 5% of emulsifier. In order to be able to assess the lasting effects of the substances, the plants, after the spray coating had dried on, were placed in a greenhouse for 7 days. Only then were the leaves inoculated with an aqueous suspension of zoospores of Plasmopara viticola. The vines were then initially placed in a chamber saturated with water vapor at 24° C. for 48 hours and subsequently in a greenhouse at temperatures of between 20 and 30° C. for 5 days. After this period of time, the plants were once more placed in a humid chamber for 16 hours to accelerate the eruption of sporangiphores. The extent to which the infection had developed on the undersides of the leaves was then determined visually.

CCOc1ccc(CCNC(=O)C(=CC(C)(C)C)c2ccc(OC)cc2)cc1OC [Compound I-72]
infection (Phytophthora infestans): up to 15% | infection (Plasmopara viticola): up to 15%

COc1ccc(CCNC(=O)C(=CC(C)C)c2ccc(C(C)(C)C)cc2)cc1OC [Compound I-51]
infection (Phytophthora infestans): up to 15%

CCC=C(C(=O)NCCc1ccc(OC)c(OC)c1)c1ccc(C(C)(C)C)cc1 [Compound I-7]
infection (Phytophthora infestans): up to 15% | infection (Plasmopara viticola): up to 15%

CCC=C(C(=O)NCCc1ccc(OC)c(OC)c1)c1ccc(CC)cc1 [Compound I-16]
infection (Phytophthora infestans): up to 15% | infection (Plasmopara viticola): up to 15%

COc1ccc(CCNC(=O)C(=CC(C)(C)C)c2ccc(C(F)(F)F)cc2)cc1OC [Compound I-90]
infection (Phytophthora infestans): up to 15% | infection (Plasmopara viticola): up to 15%

CCOc1ccc(C(=CC(C)C)C(=O)NCCc2ccc(OCC)c(OC)c2)cc1 [Compound I-100]
infection (Plasmopara viticola): up to 15%

CC=C(C(=O)NCCc1ccc(OCC)c(OC)c1)c1ccc(C)c(C)c1 [Compound I-107]
infection (Phytophthora infestans): up to 15% | infection (Plasmopara viticola): up to 15%

CCC=C(C(=O)NCCc1ccc(OCC)c(OC)c1)c1ccc(F)cc1 [Compound I-46]
infection (Phytophthora infestans): up to 15% | infection (Plasmopara viticola): up to 15%

CCOc1ccc(CCNC(=O)C(=CC(C)C)c2ccc(C(F)(F)F)cc2)cc1OC [Compound I-94]
infection (Phytophthora infestans): up to 15% | infection (Plasmopara viticola): up to 15%

COc1ccc(CCNC(=O)C(=CC(C)(C)C)c2ccc(C(C)C)cc2)cc1OC [Compound I-84]
infection (Phytophthora infestans): up to 15% | infection (Plasmopara viticola): up to 15%

CCOc1ccc(C(=CC(C)(C)C)C(=O)NCCc2ccc(OCC)c(OC)c2)cc1 [Compound I-66]
infection (Phytophthora infestans): up to 15% | infection (Plasmopara viticola): up to 15%

COc1ccc(CCNC(=O)C(=CC(C)(C)C)c2ccc(C(C)(C)C)cc2)cc1OC [Compound I-89]
infection (Plasmopara viticola): up to 15%

COc1ccc(CCNC(=O)C(=CC(C)(C)C)c2ccc(OC(F)(F)F)cc2)cc1OC [Compound I-80]
infection (Phytophthora infestans): up to 15% | infection (Plasmopara viticola): up to 15%

CCOc1ccc(CCNC(=O)C(=CC(C)C)c2ccc(Br)cc2)cc1OC [Compound I-96]
infection (Phytophthora infestans): up to 15% | infection (Plasmopara viticola): up to 15%

CCOc1ccc(CCNC(=O)C(=CC(C)(C)C)c2ccc(Cl)c(F)c2)cc1OC [Compound I-64]
infection (Phytophthora infestans): up to 15% | infection (Plasmopara viticola): up to 15%

CC=C(C(=O)NCCc1ccc(OCC)c(OC)c1)c1ccc(Cl)cc1 [Compound I-109]
infection (Phytophthora infestans): up to 15% | infection (Plasmopara viticola): up to 15%

CCOc1ccc(CCNC(=O)C(=CC(C)C)c2ccc(C(C)C)cc2)cc1OC [Compound I-98]
infection (Plasmopara viticola): up to 15%

CCOc1ccc(CCNC(=O)C(=CC(C)C)c2ccc(C)c(C)c2)cc1OC [Compound I-103]
infection (Phytophthora infestans): up to 15% | infection (Plasmopara viticola): up to 15%

COc1ccc(CCNC(=O)C(=CC(C)(C)C)c2ccc(Cl)cc2)cc1OC [Compound I-85]
infection (Phytophthora infestans): up to 15% | infection (Plasmopara viticola): up to 15%

COc1ccc(C(=CC(C)C)C(=O)NCCc2ccc(OC)c(OC)c2)cc1 [Compound I-49]
infection (Phytophthora infestans): up to 15% | infection (Plasmopara viticola): up to 15%

CCC=C(C(=O)NCCc1ccc(OCC)c(OC)c1)c1ccccc1 [Compound I-45]
infection (Plasmopara viticola): up to 15%

CCc1ccc(C(=CC(C)(C)C)C(=O)NCCc2ccc(OC)c(OC)c2)cc1 [Compound I-82]
infection (Phytophthora infestans): up to 15% | infection (Plasmopara viticola): up to 15%

CCOc1ccc(CCNC(=O)C(=CC(C)(C)C)c2ccc(Br)cc2)cc1OC [Compound I-69]
infection (Phytophthora infestans): up to 15% | infection (Plasmopara viticola): up to 15%

CCC=C(C(=O)NCCc1ccc(OCC)c(OC)c1)c1ccc(CC)cc1 [Compound I-41]
infection (Phytophthora infestans): up to 15% | infection (Plasmopara viticola): up to 15%

CCOc1ccc(CCNC(=O)C(=CC(C)(C)C)c2ccc(C)c(C)c2)cc1OC [Compound I-60]
infection (Phytophthora infestans): up to 15% | infection (Plasmopara viticola): up to 15%

CC=C(C(=O)NCCc1ccc(OCC)c(OC)c1)c1ccc(Br)cc1 [Compound I-106]
infection (Phytophthora infestans): up to 15% | infection (Plasmopara viticola): up to 15%

CCOc1ccc(CCNC(=O)C(=CC(C)C)c2ccc(Cl)c(Cl)c2)cc1OC [Compound I-22]
infection (Phytophthora infestans): up to 15% | infection (Plasmopara viticola): up to 15%

COc1ccc(CCNC(=O)C(=CC(C)(C)C)c2ccc(F)cc2)cc1OC [Compound I-77]
infection (Phytophthora infestans): up to 15% | infection (Plasmopara viticola): up to 15%

CCC=C(C(=O)NCCc1ccc(OC)c(OC)c1)c1ccc(Cl)cc1 [Compound I-19]
infection (Phytophthora infestans): up to 15% | infection (Plasmopara viticola): up to 15%

CCc1ccc(C(=CC2CC2)C(=O)NCCc2ccc(OC)c(OC)c2)cc1 [Compound I-144]
infection (Phytophthora infestans): up to 15%

CCOc1ccc(CCNC(=O)C(=CC(C)(C)C)c2ccc(Cl)c(Cl)c2)cc1OC [Compound I-58]
infection (Phytophthora infestans): up to 15% | infection (Plasmopara viticola): up to 15%

CCC=C(C(=O)NCCc1ccc(OCC)c(OC)c1)c1ccc(OC(F)(F)F)cc1 [Compound I-39]
infection (Phytophthora infestans): up to 15% | infection (Plasmopara viticola): up to 15%

CCOc1ccc(CCNC(=O)C(=CC(C)(C)C)c2ccc(CC)cc2)cc1OC [Compound I-67]
infection (Phytophthora infestans): up to 15% | infection (Plasmopara viticola): up to 15%

CCC=C(C(=O)NCCc1ccc(OC)c(OC)c1)c1ccc(C)c(C)c1 [Compound I-9]
infection (Phytophthora infestans): up to 15% | infection (Plasmopara viticola): up to 15%

CCC=C(C(=O)NCCc1ccc(OC)c(OC)c1)c1ccc(Cl)c(Cl)c1 [Compound I-5]
infection (Phytophthora infestans): up to 15% | infection (Plasmopara viticola): up to 15%

CCC=C(C(=O)NCCc1ccc(OC)c(OC)c1)c1ccc(OC)c(C)c1 [Compound I-10]
infection (Phytophthora infestans): up to 15% | infection (Plasmopara viticola): up to 15%

CCC=C(C(=O)NCCc1ccc(OCC)c(OC)c1)c1ccc(Cl)c(Cl)c1 [Compound I-44]
infection (Phytophthora infestans): up to 15% | infection (Plasmopara viticola): up to 15%

CCOc1ccc(CCNC(=O)C(=CC(C)(C)C)c2ccc(C(F)(F)F)cc2)cc1OC [Compound I-73]
infection (Phytophthora infestans): up to 15% | infection (Plasmopara viticola): up to 15%

COc1ccc(CCNC(=O)C(=CC2CC2)c2ccc(C)c(C)c2)cc1OC [Compound I-148]
infection (Phytophthora infestans): up to 15%

COc1cc(CCNC(=O)C(=CC(C)(C)C)c2ccc(Cl)cc2)ccc1OC(F)F [Compound I-128]
infection (Phytophthora infestans): up to 15% | infection (Plasmopara viticola): up to 15%

COc1ccc(CCNC(=O)C(=CC2CC2)c2ccc(Br)cc2)cc1OC [Compound I-142]
infection (Phytophthora infestans): up to 15%

CCOc1ccc(CCNC(=O)C(=CC2CC2)c2ccc(F)cc2)cc1OC [Compound I-140]
infection (Phytophthora infestans): up to 15%

COc1cc(CCNC(=O)C(=CC(C)(C)C)c2ccc(Br)cc2)ccc1OC(F)F [Compound I-132]
infection (Plasmopara viticola): up to 15%

COc1cc(CCNC(=O)C(=CC(C)C)c2ccc(Cl)cc2)ccc1OC(F)F [Compound I-112]
infection (Plasmopara viticola): up to 15%

COc1ccc(C(=CC2CC2)C(=O)NCCc2ccc(OC)c(OC)c2)cc1 [Compound I-143]
infection (Phytophthora infestans): up to 15%

COc1ccc(C(=CC(C)(C)C)C(=O)NCCc2ccc(OC(F)F)c(OC)c2)cc1 [Compound I-134]
infection (Plasmopara viticola): up to 15%

COc1cccc(C(=CC(C)(C)C)C(=O)NCCc2ccc(OC)c(OC)c2)c1 [Compound I-88]
infection (Phytophthora infestans): up to 15%

COc1ccc(CCNC(=O)C(=CC(C)C)c2ccc(C(C)C)cc2)cc1OC [Compound I-53]
infection (Plasmopara viticola): up to 15%

CCC=C(C(=O)NCCc1ccc(OCC)c(OC)c1)c1cccc(OC)c1 [Compound I-36]
infection (Plasmopara viticola): up to 15%

CCC=C(C(=O)NCCc1ccc(OCC)c(OC)c1)c1ccc(C(C)(C)C)cc1 [Compound I-32]
infection (Plasmopara viticola): up to 15%

COc1ccc(CCNC(=O)C(=CC2CC2)c2ccccc2)cc1OC [Compound I-139]
infection (Phytophthora infestans): up to 15%

COc1ccc(CCNC(=O)C(=CC2CC2)c2ccc(Cl)c(Cl)c2)cc1OC [Compound I-147]
infection (Phytophthora infestans): up to 15%

COc1ccc(C(=CC2CC2)C(=O)NCCc2ccc(OC)c(OC)c2)cc1C [Compound I-149]
infection (Phytophthora infestans): up to 15%

CC=C(C(=O)NCCc1ccc(OC)c(OC)c1)c1ccc(C(C)(C)C)cc1 [Compound I-27]
infection (Plasmopara viticola): up to 15%

CCC=C(C(=O)NCCc1ccc(OC)c(OC)c1)c1ccccc1 [Compound I-8]
infection (Plasmopara viticola): up to 15%

COc1ccc(CCNC(=O)C(=CC2CC2)c2ccc(C(C)C)cc2)cc1OC [Compound I-145]
infection (Phytophthora infestans): up to 15%

CCc1ccc(C(=CC(C)(C)C)C(=O)NCCc2ccc(OC(F)F)c(OC)c2)cc1 [Compound I-136]
infection (Plasmopara viticola): up to 15%

COc1ccc(CCNC(=O)C(=CC2CC2)c2ccc(C(C)(C)C)cc2)cc1OC [Compound I-146]
infection (Phytophthora infestans): up to 15%

CC=C(C(=O)NCCc1ccc(OC)c(OC)c1)c1ccc(OC)cc1 [Compound I-30]
infection (Plasmopara viticola): up to 15%

CCC=C(C(=O)NCCc1ccc(OC)c(OC)c1)c1ccc(F)cc1 [Compound I-12]
infection (Plasmopara viticola): up to 15%

COc1ccc(CCNC(=O)C(=CC(C)C)c2ccc(Br)c(F)c2)cc1OC [Compound I-56]
infection (Plasmopara viticola): up to 15%

COc1ccc(CCNC(=O)C(=CC2CC2)c2ccc(C(F)(F)F)cc2)cc1OC [Compound I-141]
infection (Phytophthora infestans): up to 15%

CCOc1ccc(CCNC(=O)C(=CC(C)C)c2ccccc2)cc1OC [Compound I-92]
infection (Plasmopara viticola): up to 15%
